From US8524231 come the findings set out here.

Amino acid sequences for entries named in this document (tags omitted). Residues count along the entry.
UniProt P01584, residues 117-269: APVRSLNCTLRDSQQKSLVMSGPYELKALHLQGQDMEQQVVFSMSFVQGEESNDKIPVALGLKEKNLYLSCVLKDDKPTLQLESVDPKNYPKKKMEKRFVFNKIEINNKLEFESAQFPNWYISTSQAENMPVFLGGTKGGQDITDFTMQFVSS

Results are given in words; binding and its absence hold for the method and conditions named. Some binding calls cover weakened binding; strength is not graded here. Where a sequence is shown, tags or fusion partners need not be part of it.

This assay concerns the target biotinylated human IL-1Beta (human) (UniProt P01584). The assay can be described thus: phage ELISA: biotinylated IL-1Beta on neutravidin, crude phage, anti-M13-HRP. (In general: An ELISA detects its analyte on a solid surface through an enzyme-linked reagent.)

B1: safe variant 1F2 (phage expressing gene3-Fab fusion) (Fab, V domains shown)
VH: EVQLLESGGGLVQPGGSLRLSCAASGFTFSTYAMSWVRQAPGKGPEWVSGINTGGGSTGYADSVKGRFTISRDNSKNTLYLQMNSLRPEDTAVYYCAKDWMATTPWGQGTQVTVSS
VL: QTVVTQEPSFSVSPGGTVTLTCGLSSGSVTTNNYPGWFQQTPGQAPRTLIYNTNNRHSGVPSRFSGSILGNKAALTITGAQADDESDYYCALYMSSGSNNAVFGGGTKLTVLG
On to B1, for which the binding entry is “binds”.
